We go through seven molecules from PMC4787770.

By UniProt entry, the sequences of proteins in these tests, tags left out. Where a name states a change or a piece, a line headed by the entry shows the natural chain unless it says otherwise.
UniProt O17695: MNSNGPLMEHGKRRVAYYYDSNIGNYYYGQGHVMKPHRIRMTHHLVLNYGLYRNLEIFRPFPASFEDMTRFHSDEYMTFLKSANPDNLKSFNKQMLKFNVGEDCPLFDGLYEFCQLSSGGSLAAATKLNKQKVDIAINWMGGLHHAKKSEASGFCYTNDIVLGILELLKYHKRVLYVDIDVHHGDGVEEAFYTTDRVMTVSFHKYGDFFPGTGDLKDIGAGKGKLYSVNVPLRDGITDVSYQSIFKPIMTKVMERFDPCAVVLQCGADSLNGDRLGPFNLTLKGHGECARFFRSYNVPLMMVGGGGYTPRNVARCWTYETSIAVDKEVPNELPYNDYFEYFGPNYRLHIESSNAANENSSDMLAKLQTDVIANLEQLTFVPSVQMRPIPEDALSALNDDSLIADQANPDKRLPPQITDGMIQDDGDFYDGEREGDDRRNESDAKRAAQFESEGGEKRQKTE
UniProt Q22343: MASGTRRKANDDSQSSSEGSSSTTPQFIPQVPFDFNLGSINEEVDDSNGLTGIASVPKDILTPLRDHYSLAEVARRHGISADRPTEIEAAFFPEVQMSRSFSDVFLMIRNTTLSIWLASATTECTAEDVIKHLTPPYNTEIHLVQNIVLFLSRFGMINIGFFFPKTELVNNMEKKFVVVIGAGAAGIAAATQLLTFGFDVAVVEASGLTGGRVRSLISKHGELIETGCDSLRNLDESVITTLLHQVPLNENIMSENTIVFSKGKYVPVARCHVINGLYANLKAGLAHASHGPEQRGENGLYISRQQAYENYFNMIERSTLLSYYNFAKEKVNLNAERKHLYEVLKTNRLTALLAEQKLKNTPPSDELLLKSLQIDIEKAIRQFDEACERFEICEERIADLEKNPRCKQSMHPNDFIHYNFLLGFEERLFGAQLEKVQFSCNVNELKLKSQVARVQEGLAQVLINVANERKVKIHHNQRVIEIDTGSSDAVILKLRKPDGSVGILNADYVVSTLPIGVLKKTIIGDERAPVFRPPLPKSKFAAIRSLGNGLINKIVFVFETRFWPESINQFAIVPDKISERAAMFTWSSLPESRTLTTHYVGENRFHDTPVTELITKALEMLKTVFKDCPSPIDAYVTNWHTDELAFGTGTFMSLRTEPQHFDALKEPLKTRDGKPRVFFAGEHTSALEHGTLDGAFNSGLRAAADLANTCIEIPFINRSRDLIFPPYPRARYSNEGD

The target of this test is T1, HPL-1::GFP (C. elegans) (UniProt G5EET5).
T1 sequence: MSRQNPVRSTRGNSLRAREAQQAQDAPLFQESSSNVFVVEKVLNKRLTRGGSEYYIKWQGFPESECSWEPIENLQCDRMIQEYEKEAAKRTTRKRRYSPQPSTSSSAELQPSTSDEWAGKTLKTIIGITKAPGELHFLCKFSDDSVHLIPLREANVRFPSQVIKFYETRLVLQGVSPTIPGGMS
Description: affinity purification with mass spectrometry; about 200 mg total protein from mixed eggs and L1 of the hpl-1::GFP line, Magnetic GFP-Trap beads, elution with acidic glycine, gel slices, LC-MS/MS; hits of the controls (empty beads; wild-type extract on GFP beads) subtracted.

These are yes or no findings as the source states them, for the method shown. Binding seen in cells or lysates may run through a third protein. Here binding means that the protein was enriched with, or labelled near, the bait; the list need not be complete. Sequences can lack the tags named with a protein.

HDA-1 (from UniProt O17695 1-461): the binding result is listed as “binds”.

HMG-11: the binding result was “binds”.

For LSD-1 (from UniProt Q22343), the binding result is “binds”.

Regarding ZK185.1, the binding entry is given as “binds”.

B1: SPR-5 (protein, UniProt Q9XWP6 1-770)
chain: MSSDTGSEYLDEEIRGDELGPSIDDNALAAAASAARLPFDRPTDHELAFFPELWEHKTAVEVFLLLRNSTLATWQYNPLKECTALDVRNNVFPPFNSDLDLIQNIVHYLSRHGLINFGRYVRSTKISRFLVRDRRSVIVIGAGAAGISAATQLESFGFDVIVLEARNCIGGRIHSFKSKSGEIMETGGDTLRKIEDSPMATLLHQVNFEEHGVFDFTSVFVEGRPLNEEKIHLFLDHYKSAHGALNYQAHQCEHRDDQGSFISRQQAYENLLSMCERGTLIKYYNFCKSLETVARAREHHFNQMKQLRMTALMAENQLKKMEEEGNLEQDPVLRRSLKRDIATSLEKFEEVADAFETADNHWQRLNEHPQAKQYMHPGSEFATFNFMLGFEEYLVGAQLEKVQFSCDSMQNKENGVAARLTEGIAELLTQLSEKRKLDIRLKHRVLDIDYSGFEHVLLKVQRENGDIEEMKAAFVVSTLPIGVLKKTIIADERAPTFTPSLPDKKVEAIRNIGCGSVNKCILEFDRVFWTANGGRNQFVTVSPNIKTRGSMNIWSSVPGSKVLCTYIVGEEAMLELPDDVIIQNAMINLQKAFGNNCPRAPISAHITRWHDDELAFGSGAFMSLRTETTSFDDVMEPLKTSDGMSRVYFAGEHTCSSYTSTIQGAWMSGARAAADISNDHIGIGFVDISGTRGQRGDEEEELLIEVDIDGKIPEKDENEAVADIPNAPNAPNAQKPEEIPKIAEEIELVAEAEKAEKAEVQLEPLVPTVE
As for B1, the binding result is reported as “binds”.

B2: HPL-2, endogenous (protein, UniProt G5EDE2 1-175)
chain: MSSKSTKRAKIEDPKDNVFMVEKVLDKRTGKAGRDEFLIQWQGFPESDSSWEPRENLQCVEMLDEFEREFSKREKPIRKRHSQKPEPSEDQADPEEDKDEKKETNQNDKFSLEGKQLKCIVGLTKGPGELHFLCKFSDDTARLLPAKEVNSRYPSQVIRYYESKLTIQDPKADEL
Regarding B2, the binding result is listed as “binds”.

B3: RCOR-1 (protein, UniProt Q95Y41 1-564)
chain: MDSYTSSDEDASRKENISDEGLNMLNASPEPMEEDDPEEQAEQEEETSRMARPIRSMRKRETTSGESMGDEDEDLEDEEDEDEEAEAREHHESGAHDTSFSNPLSNVDNLIHVGTEYQAIIQPTAEQLEKEPCRDQQIWAFPDEMNENRLTEYISEATGRYQLPIDRALFILNKQSNDFDAAMVQAMRRKEIHDDWTAEEISLFSTCFFHFGKRFKKIHAAMPQRSLSSIIQYYYNTKKVQNYKTMINVHLNETDTYDELFKEVNHLERVPSGYCENCNAKSDLLILNRVMSRHECKPCILYFRLMRVPRPASLRALTKRRQRVLCPEYMKIYVYGYLELMEPANGKAIKRLGIGKEKEEDDDIMVVDDCLLRKPSGPYIVEQSIEADPIDENTCRMTRCFDTPAALALIDNIKRKHHMCVPLVWRVKQTKCMEENEILNEEARQQMFRATMTYSRVPKGEIANWKKDMMALKGRFERFTPELDTTATNGNRSGKVRINYGWSPEEKKNAIRCFHWYKDNFELIAELMATKTVEQIKKFYMDNEKLILESIDTYRAELKSKLGK
For B3, the binding result is recorded as “binds”.
